Reference: paper PMC2853562

Target: Flag-MKK7
Assay: co-IP; Flag-MKK7 co-expressed with CAR-V5 and/or GADD45B-V5 in HEK293T cells; lysates incubated with anti-Flag M2-agarose 1 h at 4°C; Western blot with anti-V5 and anti-Flag

binding: binds
B1: CAR-V5 (receptor, UniProt O35627 1-358)
chain: MTAMLTLETMASEEEYGPRNCVVCGDRATGYHFHALTCEGCKGFFRRTVSKTIGPICPFAGRCEVSKAQRRHCPACRLQKCLNVGMRKDMILSAEALALRRARQAQRRAEKASLQLNQQQKELVQILLGAHTRHVGPMFDQFVQFKPPAYLFMHHRPFQPRGPVLPLLTHFADINTFMVQQIIKFTKDLPLFRSLTMEDQISLLKGAAVEILHISLNTTFCLQTENFFCGPLCYKMEDAVHAGFQYEFLESILHFHKNLKGLHLQEPEYVLMAATALFSPDRPGVTQREEIDQLQEEMALILNNHIMEQQSRLQSRFLYAKLMGLLADLRSINNAYSYELQRLEELSAMTPLLGEICS

binding: binds
B2: GADD45B-V5 (protein, UniProt P22339 1-160)
chain: MTLEELVASDNAVQKMQAVTAAVEQLLVAAQRQDRLTVGVYEAAKLMNVDPDSVVLCLLAIDEEEEDDIALQIHFTLIQSFCCDNDIDIVRVSGMQRLAQLLGEPAETLGTTEARDLHCLLVTNCHTDSWKSQGLVEVASYCEESRGNNQWVPYISLEER

These are yes or no findings as the source states them, for the method shown. Binding seen in cells or lysates may run through a third protein. A result given as binding can be weak or reduced; the word gives no strength. Where a sequence is shown, tags or fusion partners need not be part of it. One block for each binder: values may come before it.
